Measured values as given in the supplement of paper PMC5393889.
The list shows a part of the results.

tested on: Caenorhabditis elegans N2; experiment: aldicarb interaction hit call (worm growth perturbed in combination with 10 uM aldicarb in both replicates, no effect as single agent) (binary (1 = interacts)); higher = interacts with aldicarb (growth perturbed); details: first compound 1.5 µM; aldicarb concentration 10 µM; 6 days; 20 °C

Structure (SMILES)	aldicarb interaction hit call
C#CCOc1ccc(/C=C2\C(=O)N(c3ccc(Cl)cc3)N=C2C(F)(F)F)cc1OCC [wact-208] + CNC(=O)O/N=C/C(C)(C)SC [aldicarb]	inactive: 0
Clc1cccc(Cl)c1-c1nc(-c2ccccc2)no1 [wact-70] + CNC(=O)O/N=C/C(C)(C)SC [aldicarb]	inactive: 0
Cc1ccc(C(=O)O/N=C(\N)c2ccncc2)c(C)c1 [wact-100] + CNC(=O)O/N=C/C(C)(C)SC [aldicarb]	inactive: 0
CC(C)NCCCCOc1ccc(Br)cc1Cl.O=C(O)C(=O)O [wact-67] + CNC(=O)O/N=C/C(C)(C)SC [aldicarb]	inactive: 0
CN(Cc1ccc2nonc2c1)CC1CCN(CCc2cccc(F)c2)CC1 [wact-324] + CNC(=O)O/N=C/C(C)(C)SC [aldicarb]	inactive: 0
Fc1ccc(OCc2nc3ccccc3s2)cc1 [wact-15] + CNC(=O)O/N=C/C(C)(C)SC [aldicarb]	inactive: 0
CC(=O)Nc1ccc(NC(=O)CC2Sc3ccc(C(F)(F)F)cc3NC2=O)cc1 (stereo not drawn) [wact-607] + CNC(=O)O/N=C/C(C)(C)SC [aldicarb]	inactive: 0
Clc1ccc(-c2cnnc(N3CCC(c4ccncc4)CC3)n2)cc1 [wact-273] + CNC(=O)O/N=C/C(C)(C)SC [aldicarb]	inactive: 0
O=C(Nc1ccc(N2CCN(C(=O)c3ccco3)CC2)c(Cl)c1)c1ccc(F)cc1 [wact-228] + CNC(=O)O/N=C/C(C)(C)SC [aldicarb]	inactive: 0
O=C(c1cc(COc2ccc(F)cc2Cl)on1)N1CCC(c2ccncc2)CC1 [wact-280] + CNC(=O)O/N=C/C(C)(C)SC [aldicarb]	inactive: 0
Cc1ccc(-c2n[nH]cc2CNCc2ccc(OC(F)(F)F)cc2)cc1C [wact-307] + CNC(=O)O/N=C/C(C)(C)SC [aldicarb]	inactive: 0
CCNCCOc1ccc(-c2ccccc2)cc1.Cl [wact-179] + CNC(=O)O/N=C/C(C)(C)SC [aldicarb]	inactive: 0
Cl.Clc1c(OCCCn2ccnc2)ccc2ccccc12 [wact-148] + CNC(=O)O/N=C/C(C)(C)SC [aldicarb]	inactive: 0
O=C(c1ccc(Cl)c(Cl)c1)N1CCN(c2ccc([N+](=O)[O-])cc2F)CC1 [wact-221] + CNC(=O)O/N=C/C(C)(C)SC [aldicarb]	inactive: 0
COC(=O)c1cc(-c2ccc(C)cc2)on1 [wact-578] + CNC(=O)O/N=C/C(C)(C)SC [aldicarb]	inactive: 0
COC(=O)c1ccc(CSc2ccc(C)cc2)cc1 [wact-514] + CNC(=O)O/N=C/C(C)(C)SC [aldicarb]	active: 1
FC(F)(F)c1ccc(-c2noc(CN3CCC(N4CCSCC4)CC3)n2)cc1 [wact-238] + CNC(=O)O/N=C/C(C)(C)SC [aldicarb]	inactive: 0
Nc1nc(Nc2ccc(Cl)cc2)nc(C(F)(F)F)n1 [wact-161] + CNC(=O)O/N=C/C(C)(C)SC [aldicarb]	inactive: 0
CN(Cc1cccn1-c1nccs1)CC1CCCN(CCc2ccc(Cl)cc2)C1 (stereo not drawn) [wact-252] + CNC(=O)O/N=C/C(C)(C)SC [aldicarb]	inactive: 0

Structure (SMILES)	aldicarb interaction hit call
C=CCSc1nnc(-c2ccc(Cl)cc2Cl)o1 [wact-5] + CNC(=O)O/N=C/C(C)(C)SC [aldicarb]	inactive: 0
O=S(=O)(NCCSc1ccc(Cl)cc1)c1ccc(F)cc1 [wact-456] + CNC(=O)O/N=C/C(C)(C)SC [aldicarb]	inactive: 0
Clc1ccc(OCC#CCSc2ncccn2)cc1 [wact-121] + CNC(=O)O/N=C/C(C)(C)SC [aldicarb]	inactive: 0
C#CCN1C(=O)/C(=N/NC(=O)c2ccccc2Cl)c2cc(Br)ccc21 [wact-356] + CNC(=O)O/N=C/C(C)(C)SC [aldicarb]	inactive: 0
Cc1cc2c(NCCc3ccccc3)ncnc2s1.Cl [wact-550] + CNC(=O)O/N=C/C(C)(C)SC [aldicarb]	inactive: 0
C=CCOc1ccc(/C=C/C(=O)c2ccc(OC)cc2)cc1 [wact-218] + CNC(=O)O/N=C/C(C)(C)SC [aldicarb]	inactive: 0
O=C(/C=C/Nc1ccccc1I)c1ccccc1 [wact-422] + CNC(=O)O/N=C/C(C)(C)SC [aldicarb]	inactive: 0
Fc1ccc(-c2ccc(CNC3CC3)o2)cc1Cl [wact-182] + CNC(=O)O/N=C/C(C)(C)SC [aldicarb]	inactive: 0
COc1ccc(-c2nc3cc(N)ccc3o2)cc1 [wact-600] + CNC(=O)O/N=C/C(C)(C)SC [aldicarb]	inactive: 0
O/N=C1\CCCc2c1[nH]c1ccc(Cl)cc21 [wact-33] + CNC(=O)O/N=C/C(C)(C)SC [aldicarb]	inactive: 0
CCC(=O)c1ccc(OCc2ccc(F)cc2)cc1 [wact-542] + CNC(=O)O/N=C/C(C)(C)SC [aldicarb]	inactive: 0
O=C(c1cccc(C(F)(F)F)c1)C1CCCN(Cc2cccc3cnccc23)C1 (stereo not drawn) [wact-248] + CNC(=O)O/N=C/C(C)(C)SC [aldicarb]	inactive: 0
CCCCNC(=O)c1ccccc1I [wact-52] + CNC(=O)O/N=C/C(C)(C)SC [aldicarb]	inactive: 0
O=C(NC(=S)Nc1cccc(C(F)(F)F)c1)c1ccccc1F [wact-463] + CNC(=O)O/N=C/C(C)(C)SC [aldicarb]	inactive: 0
COc1ccc(OC)c(N(CC(=O)NC2CC3CCC2C3)S(C)(=O)=O)c1 (stereo not drawn) [wact-465] + CNC(=O)O/N=C/C(C)(C)SC [aldicarb]	inactive: 0
COc1ccc(/C=N/c2ccc(-c3nc4ccc(C)cc4s3)cc2)cc1 [wact-375] + CNC(=O)O/N=C/C(C)(C)SC [aldicarb]	inactive: 0
CN(Cc1cnn(C)c1)Cc1cn(-c2ccc(F)cc2)nc1-c1ccccc1Cl [wact-316] + CNC(=O)O/N=C/C(C)(C)SC [aldicarb]	inactive: 0
CCc1ccc(-c2cn3ccsc3n2)cc1 [wact-434] + CNC(=O)O/N=C/C(C)(C)SC [aldicarb]	inactive: 0
CN(CC1CC=CCC1)CC1CCN(CCc2cccc(F)c2)CC1 (stereo not drawn) [wact-259] + CNC(=O)O/N=C/C(C)(C)SC [aldicarb]	inactive: 0

A section taken from the entries so far:
Structure (SMILES)	aldicarb interaction hit call
Cc1cc2c(NCCc3ccccc3)ncnc2s1.Cl [wact-550] + CNC(=O)O/N=C/C(C)(C)SC [aldicarb]	inactive: 0
C=CCOc1ccc(/C=C/C(=O)c2ccc(OC)cc2)cc1 [wact-218] + CNC(=O)O/N=C/C(C)(C)SC [aldicarb]	inactive: 0
